PubChem BioAssay AID504793 | Drosophila RNAi Screening Center, 2011
The deposit covers about 23,000 reagents; below is a random part of those with a known target gene and a result. Of all reagents, 62 (0.27%) got an active call. 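Calls come from follow-up tests whose scores are not deposited, so confirmed genes may have low counts here; counts are not normalised per plate.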 Raw values are not corrected between plates. The numbers tell different reagents against one gene apart.

Assay: 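Whole-genome screen for parts of the DNA damage checkpoint at G2/M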 (primary screen)
Cells: Drosophila S2R+ cells
Reagents: long dsRNA against Drosophila genes, about 0.25 µg dsRNA per well
Time to read-out: 4 days of dsRNA, then 4 hours of drug before read-out
Treatment: doxorubicin 0.5 µM for 4 hours to cause double-strand breaks, in cells also given a low, harmless dose of dsRNA against nbs to sensitise the assay
Read-out: 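Mitotic index as the number of phospho-histone H3-positive cells in each well following doxorubicin, given as raw counts without normalisation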
Scale: mitotic cells: higher = more cells in mitosis, weaker G2 arrest
Call rule: 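Genes are called active only when high mitotic counts were reproduced with independent dsRNAs and mitosis was checked for delay without damage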
Calls: active = confirmed in follow-up tests; inactive = not confirmed

| Gene | reagent | mitotic cells, replicate 1 | activity call |
| --- | --- | --- | --- |
| CG32024 | 1 | 6 | inactive |
| Ir7g | 1 | 9 | inactive |
| Ir7g | 2 | 9 | inactive |
| CG42272 | 1 | 12 | inactive |
| CG42272 | 2 | 5 | inactive |
| CG42272 | 3 | 3 | inactive |
| CG42272 | 4 | 4 | inactive |
| RhoGDI | 1 | 11 | inactive |
| CG7627 | 1 | 2 | inactive |
| CG7627 | 2 | 7 | inactive |
| TotX | 1 | 8 | inactive |
| TotX | 2 | 7 | inactive |
| CG9192 | 1 | – | inactive |
| Csas | 1 | 11 | inactive |
| CG33137 | 1 | 3 | inactive |
| Alg1 | 1 | 7 | inactive |
| Alg1 | 2 | 4 | inactive |
| CG18420 | 1 | 3 | inactive |
| Ugt36D1 | 1 | 8 | inactive |
| EcR | 1 | 7 | inactive |
| EcR | 2 | 7 | inactive |
| EcR | 3 | 17 | inactive |
| CG34457 | 1 | 6 | inactive |
| Slc25A46a | 1 | 6 | inactive |
| CG12310 | 1 | 5 | inactive |
| CG12310 | 2 | 6 | inactive |
| HDAC11 | 1 | 13 | inactive |
| HDAC11 | 2 | 6 | inactive |
| CG9084 | 1 | 6 | inactive |
| blanks | 1 | 6 | inactive |
| Ids | 1 | 5 | inactive |
| kek4 | 1 | 2 | inactive |
| aurA | 1 | 8 | inactive |
| aurA | 2 | 6 | inactive |
| ari-2 | 1 | 7 | inactive |
| ari-2 | 2 | 9 | inactive |
| CG8765 | 1 | 16 | inactive |
| CG8765 | 2 | 8 | inactive |
| CG31817 | 1 | 4 | inactive |
| CG31817 | 2 | 8 | inactive |
| CG31817 | 3 | 48 | inactive |
| CG4951 | 1 | 6 | inactive |
| Act87E | 1 | 11 | inactive |
| Act87E | 2 | 6 | inactive |
| Pkc98E | 1 | 3 | inactive |
| Pkc98E | 2 | 6 | inactive |

Targets listed so far whose gene name begins with E or e (3):
| Gene | reagent | mitotic cells, replicate 1 | activity call |
| --- | --- | --- | --- |
| EcR | 1 | 7 | inactive |
| EcR | 2 | 7 | inactive |
| EcR | 3 | 17 | inactive |
